Values from PubChem BioAssay AID1259308 (NCATS, 2017)
The whole screen tested about 59,000 reagents; this is a part drawn at random. About 1,510 of them (2.6%) count as active. 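Calls use total luciferase alone and ignore viability, so some active siRNAs may act by altering cell number.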

Screen: 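Genes whose loss raises luciferase production in HEK293 cells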 (primary screen)
Cells: human HEK293 embryonic kidney cells stably expressing firefly luciferase (HEK-CMV-Luc2-Hygro)
Reagent: single siRNA against human genes, 0.8 pmol siRNA per well
Duration: 72 h
Measurement: 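Luciferase light (ONE-Glo) measured on one replicate plate set and viability (CellTiter-Glo) on the other, scaled to a negative control siRNA, with robust z-scores and luciferase per cell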
Direction: total luciferase, z-score and total luciferase, % of control: higher = more reporter protein produced; luciferase per cell, z-score: higher = more reporter output per viable cell; viable cells, % of control: higher = more viable cells
Call rule: 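Active when the median/MAD z-score for overall luciferase is greater than 3; a gene was taken forward for validation with new siRNAs if at least two of its three siRNAs passed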
Calls: active = raised luciferase; inactive = no rise

no.	gene knocked down	PubChem SID	total luciferase, z-score	total luciferase, % of control	luciferase per cell, z-score	viable cells, % of control	outcome
1	BORCS7 (BLOC-1 related complex subunit 7)	SID160755697	0.0199	82.3	0.142	88.6	inactive
2	BORCS7 (BLOC-1 related complex subunit 7)	SID160755698	-0.00221	81.8	-0.148	95.1	inactive
3	BORCS7 (BLOC-1 related complex subunit 7)	SID160755699	-1.11	59.8	-1.13	90	inactive
4	LPAL2 (lipoprotein(a) like 2 (pseudogene))	SID160750446	1.69	116	1.45	88.2	inactive
5	LPAL2 (lipoprotein(a) like 2 (pseudogene))	SID160750447	-0.138	79.1	-0.682	106	inactive
6	LPAL2 (lipoprotein(a) like 2 (pseudogene))	SID160750448	-2.09	40.3	-1.5	66.8	inactive
7	EIF1AD	SID160752055	4.31	168	2.57	95.1	active
8	EIF1AD	SID160752056	0.243	86.7	0.261	90.5	inactive
9	EIF1AD	SID160752057	-1.24	57.3	-1.11	85.7	inactive

Next part, starting with the last 2 of the part before.
no.	gene knocked down	PubChem SID	total luciferase, z-score	total luciferase, % of control	luciferase per cell, z-score	viable cells, % of control	outcome
8	EIF1AD	SID160752056	0.243	86.7	0.261	90.5	inactive
9	EIF1AD	SID160752057	-1.24	57.3	-1.11	85.7	inactive
10	LINC01249 (long independently transcribed non-coding RNA 1249)	SID160734268	0.906	99.9	0.52	97.3	inactive
11	LINC01249 (long independently transcribed non-coding RNA 1249)	SID160771373	0.643	94.7	0.523	92.2	inactive
12	LINC01249 (long independently transcribed non-coding RNA 1249)	SID160771374	0.225	86.4	0.308	89	inactive
13	GIT1 (GIT ArfGAP 1)	SID160738881	4.01	162	2.11	104	active
14	GIT1 (GIT ArfGAP 1)	SID160738882	-0.409	73.7	-0.392	91.4	inactive
15	GIT1 (GIT ArfGAP 1)	SID160738883	0.991	102	0.625	96.3	inactive
16	SPTLC1 (serine palmitoyltransferase long chain base subunit 1)	SID160728725	0.676	95.3	2.34	57.6	inactive
17	SPTLC1 (serine palmitoyltransferase long chain base subunit 1)	SID160728726	0.715	96.1	0.552	92.9	inactive
18	SPTLC1 (serine palmitoyltransferase long chain base subunit 1)	SID160728727	1.29	108	2.26	66.3	inactive
19	ZFP37 (ZFP37 zinc finger protein)	SID160718953	-0.145	79	0.0687	86.7	inactive
20	ZFP37 (ZFP37 zinc finger protein)	SID160718954	-1.75	47.1	-0.945	67.6	inactive
21	ZFP37 (ZFP37 zinc finger protein)	SID160718955	0.787	97.5	0.96	84.7	inactive
22	CEP170B (centrosomal protein 170B)	SID160762993	-0.258	76.8	-0.795	106	inactive
23	CEP170B (centrosomal protein 170B)	SID160762994	-0.957	62.9	0.256	65.7	inactive
24	CEP170B (centrosomal protein 170B)	SID160762995	-0.277	76.4	-0.781	105	inactive
